Values of other authors in patent publication US20130331427A1, “METHODS OF STIMULATING CELLULAR GROWTH, SYNAPTIC, REMODELING AND CONSOLIDATION OF LONG-TERM MEMORY” (Blanchette Rockefeller Neuroscience Institute, priority 2007, published 2013).
At least one compound was matched to its structure with a doubt left.

Target: PKC
Conditions: read-out: Kd of PKC activation; cited from earlier work

In the case of `CC(C)=CCC/C(C)=C/CC/C(C)=C/CSc1nc[nH]n1` [Farnesyl thiotriazole], the Kd is given as 2500 nM.
